Cell number after 72 h of treatment

Data from the primary screen of doi:10.1371/journal.pone.0140310, rounded.

Drug key:
YM155 (0.002 µM): COCC[n+]1c2c(n(Cc3cnccn3)c1C)C(=O)c1ccccc1C2=O
MK-2206 (2 µM): NC1(c2ccc(-c3nc4ccn5c(=O)[nH]nc5c4cc3-c3ccccc3)cc2)CCC1
cediranib (2 µM): COc1cc2c(Oc3ccc4[nH]c(C)cc4c3F)ncnc2cc1OCCCN1CCCC1
palbociclib (0.2 µM): CC(=O)c1c(C)c2cnc(Nc3ccc(N4CCNCC4)cn3)nc2n(C2CCCC2)c1=O
gemcitabine (0.002 µM): Nc1ccn([C@@H]2O[C@H](CO)[C@@H](O)C2(F)F)c(=O)n1
SU6656 (2 µM): CN(C)S(=O)(=O)c1ccc2c(c1)/C(=C/c1cc3c([nH]1)CCCC3)C(=O)N2
FK866 (0.05 µM): O=C(/C=C/c1cccnc1)NCCCCC1CCN(C(=O)c2ccccc2)CC1
vorinostat (0.4 µM): O=C(CCCCCCC(=O)Nc1ccccc1)NO
XAV939 (10 µM): Oc1nc(-c2ccc(C(F)(F)F)cc2)nc2c1CSCC2
temozolomide (10 µM): Cn1nnc2c(C(N)=O)ncn2c1=O

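Human melanoma cell lines in 1,536-well plates were treated with two drugs together for 72 h, then fixed, stained and imaged. Each value is the count of nuclei relative to DMSO-treated wells, in %, so that 100 equals the control. Every drug was used at one fixed concentration, the higher of two screened. The file gives one value for each pair and line, without errors, so small differences may be noise.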 This is part of the screen, not chosen by result.

| Combination | COLO 792 | COLO 829 | COLO 800 | WM3619 | C32 |
|---|---|---|---|---|---|
| XAV939 + MK-2206 | 60.2 | 119 | 73.8 | 73.0 | 97.8 |
| SU6656 + gemcitabine | 59.8 | 51.0 | 25.9 | 57.6 | 84.2 |
| vorinostat + FK866 | 58.5 | 71.6 | 23.3 | 82.6 | 93.1 |
| XAV939 + gemcitabine | 76.2 | 69.5 | 62.4 | 34.4 | 72.7 |
| gemcitabine + temozolomide | 84.4 | 55.8 | 41.3 | 53.7 | 97.0 |
| vorinostat + temozolomide | 105 | 89.7 | 63.3 | 61.2 | 85.6 |
| SU6656 + FK866 | 65.9 | 73.2 | 35.1 | 88.9 | 78.2 |
| MK-2206 + cediranib | 42.3 | 115 | 59.9 | 91.1 | 76.4 |
| YM155 + MK-2206 | 26.8 | 71.0 | 30.1 | 71.7 | 86.4 |
| MK-2206 + SU6656 | 41.8 | 74.1 | 50.9 | 71.0 | 72.5 |
| YM155 + gemcitabine | 32.8 | 30.0 | 15.5 | 23.8 | 80.6 |
| SU6656 + vorinostat | 38.7 | 77.7 | 30.8 | 66.7 | 88.9 |
| cediranib + temozolomide | 61.2 | 80.6 | 51.7 | 86.6 | 98.5 |
| FK866 + XAV939 | 57.4 | 83.5 | 36.2 | 64.7 | 108 |
| YM155 + cediranib | 42.0 | 84.1 | 24.4 | 112 | 90.2 |
| XAV939 + YM155 | 63.1 | 77.1 | 38.0 | 78.0 | 102 |
| XAV939 + temozolomide | 85.1 | 90.5 | 78.9 | 66.8 | 108 |
| SU6656 + temozolomide | 85.0 | 69.2 | 59.3 | 82.4 | 78.1 |
| XAV939 + vorinostat | 76.0 | 79.8 | 57.4 | 55.6 | 87.8 |
| XAV939 + palbociclib | 39.5 | 88.7 | 69.6 | 46.6 | 60.9 |
| FK866 + MK-2206 | 42.5 | 63.8 | 25.5 | 86.4 | 89.1 |
| palbociclib + cediranib | 50.3 | 92.8 | 62.8 | 86.3 | 89.2 |
| SU6656 + palbociclib | 40.9 | 82.2 | 51.8 | 72.5 | 94.6 |
| gemcitabine + MK-2206 | 32.7 | 52.0 | 24.5 | 39.2 | 76.8 |
| SU6656 + XAV939 | 55.0 | 95.5 | 52.7 | 59.9 | 94.3 |
| vorinostat + cediranib | 72.8 | 59.8 | 49.3 | 109 | 106 |
| vorinostat + palbociclib | 42.1 | 47.5 | 85.0 | 68.5 | 80.7 |
| FK866 + cediranib | 29.5 | 79.1 | 22.9 | 93.4 | 99.4 |
| FK866 + palbociclib | 33.9 | 64.4 | 47.8 | 46.5 | 67.2 |
| cediranib + gemcitabine | 42.7 | 51.1 | 34.8 | 63.7 | 87.7 |
| temozolomide + palbociclib | 43.9 | 97.4 | 126 | 80.4 | 76.4 |
| palbociclib + gemcitabine | 29.3 | 56.7 | 63.3 | 76.1 | 80.6 |
| cediranib + SU6656 | 51.6 | 77.9 | 36.4 | 70.0 | 88.1 |

For reference, 4 entries once more:

| Combination | COLO 792 | COLO 829 | COLO 800 | WM3619 | C32 |
|---|---|---|---|---|---|
| palbociclib + gemcitabine | 29.3 | 56.7 | 63.3 | 76.1 | 80.6 |
| vorinostat + FK866 | 58.5 | 71.6 | 23.3 | 82.6 | 93.1 |
| temozolomide + palbociclib | 43.9 | 97.4 | 126 | 80.4 | 76.4 |
| SU6656 + temozolomide | 85.0 | 69.2 | 59.3 | 82.4 | 78.1 |